Measurements from US20030139391A1 (priority 2000, published 2003).
Entries after “also recorded” stand apart in the source; their conditions may differ. At least one structure is not confirmed: it was looked up by name or label, or the drawing left a doubt.

Columns and labels:
patients = test: ADAS-cog in earlier study with quicker titration; type: in vivo, human
Protocol: An improvement in tolerability at this dose was seen, but this dose was suboptimal from an efficacy standpoint.
Statistical analysis of the results of the ADAS-cog score is shown below in Table 7. […] This indicated a significant improvement of the patients' cognitive function at this dose level. The treatment with 36 mg/day in this study was terminated at an early point and thus there was insufficient information for a well defined comparison with the placebo.

nicotinic receptor sites = conditions: cited from earlier work
[1] = test system: muscarinic receptor sites; conditions: cited from earlier work

COc1ccc2c3c1O[C@H]1C[C@@H](O)C=C[C@@]31CCN(C)C2 [GAL, galantamine]
Cognitive performance (ADAS-cog) vs. placebo (patients; 18 mg/day in three doses, quicker titration): statistical improvement over the placebo; also recorded: not statistically different from the placebo | Cognitive performance (ADAS-cog) vs. placebo (patients; 24 mg daily in three doses, two week titration): statistically superior | activity at nicotinic receptor sites (nicotinic receptor sites): active | activity on muscarinic receptor sites [1]: not on muscarinic receptor sites
